# Experimental data reported in publication PMC6925144, “A prospective compound screening contest identified broader inhibitors for Sirtuin 1” (Scientific Reports, 2019).
# Amino acid sequences for entries named in this document (tags omitted). Residues count along the entry.
# UniProt Q96EB6, 2-747 limits assumed: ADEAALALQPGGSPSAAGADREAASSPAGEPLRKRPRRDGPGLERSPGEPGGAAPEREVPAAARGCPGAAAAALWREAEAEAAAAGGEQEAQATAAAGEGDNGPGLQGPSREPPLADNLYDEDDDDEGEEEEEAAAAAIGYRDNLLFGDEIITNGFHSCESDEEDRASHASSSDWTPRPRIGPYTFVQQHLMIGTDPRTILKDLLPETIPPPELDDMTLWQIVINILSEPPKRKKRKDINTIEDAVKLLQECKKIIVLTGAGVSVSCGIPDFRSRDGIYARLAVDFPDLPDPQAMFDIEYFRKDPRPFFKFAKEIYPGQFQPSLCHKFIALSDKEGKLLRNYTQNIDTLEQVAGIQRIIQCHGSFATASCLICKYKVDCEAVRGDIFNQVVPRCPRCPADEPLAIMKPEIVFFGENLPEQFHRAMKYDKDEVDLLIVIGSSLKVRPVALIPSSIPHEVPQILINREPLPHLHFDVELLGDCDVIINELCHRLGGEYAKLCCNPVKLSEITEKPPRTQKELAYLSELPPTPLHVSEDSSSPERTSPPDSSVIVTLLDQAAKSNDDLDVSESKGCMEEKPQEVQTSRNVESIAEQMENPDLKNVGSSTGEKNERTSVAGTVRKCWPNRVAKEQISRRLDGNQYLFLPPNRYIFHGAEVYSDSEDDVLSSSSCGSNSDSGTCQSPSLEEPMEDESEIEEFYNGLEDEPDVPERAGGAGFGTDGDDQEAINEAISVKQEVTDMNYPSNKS
# Whole data set: some 3,200 compounds, median “TSA(with NAD+) / Primary screening (TSA) / delta Tm (K)” near -0.04, cut for the highest 2% near 0.37. Some of the results follow.
# Target: NAD-dependent deacetylase Sirtuin 1 (human, UniProt Q96EB6)
# Assay: primary screen, delta tm
# Design: single well (n = 1, as 'the same TSA')
# Conditions: 10 µM
row,SMILES,TSA(with NAD+) / Primary screening (TSA) / delta Tm (K)
1,CC(N)c1nnn[nH]1 (centres unmarked),-0.05 K
2,O=C(CCc1nc2ccccc2o1)N1CCN(C(c2ccccc2)c2ccccc2)CC1,-0.01 K
3,COc1cc(NC(=O)C2CCCC2)c(C(=O)OCC(=O)N(Cc2ccccc2)C(C)(C)C)cc1OC,-0.09 K
4,Cc1cc(CC(=O)NC(CC(C)C)C(=O)Nc2cc[nH]n2)no1 (centres unmarked),0.05 K
5,COc1ccc(C(=O)C2=C(O)C(=O)N(CCCN3CCOCC3)C2c2ccccc2)cc1OC (centres unmarked),-0.14 K
6,CCOc1ccc(CCNC(=O)COC(=O)CNC(=O)C23CC4CC(CC(C4)C2)C3)cc1OCC,-0.12 K
7,CC1CCc2[nH]c3ccc(C(=O)OCC(=O)NC(=O)NC45CC6CC(CC(C6)C4)C5)cc3c2C1 (centres unmarked),0.31 K
8,COc1ccc(CCC(=O)Nc2cc(S(=O)(=O)N3CCCCC3)ccc2OC(C)C)cc1OC,-0.05 K
9,COc1ccccc1NS(=O)(=O)c1ccc(N2CCOCC2)c(NC(=S)NC(=O)C23CC4CC(CC(C4)C2)C3)c1,-0.06 K
10,Cc1ccc(NC(=O)C2=COCCO2)cc1S(=O)(=O)N1CCOCC1,-0.04 K
11,NNC(=O)Cc1ccc(Cl)cc1,-0.05 K
12,CCCC(C)C(=O)O (centres unmarked),-0.06 K
13,NC(=O)c1cccc(CNCc2ccsc2)c1,0.05 K
14,COc1ccc(CNCc2ccc(C(N)=O)cc2)cc1,0.01 K
15,O=C(CCn1[nH]c(=O)ccc1=O)Nc1ccc(Cl)cc1F,-0.04 K
16,O=C(c1cccc(Cl)c1)N1CCc2ccccc21,-0.04 K
17,NC(=O)c1ccc(COC(=O)c2cc3c(ccc4ccccc43)[nH]2)cc1,0.09 K
18,CCc1noc(CNc2cc(C(N)=O)ccc2OC)n1,-0.03 K
19,CCOc1ccc(C2C(C(=O)c3ccc(C)o3)=C(O)C(=O)N2CCCN2CCOCC2)cc1OC (centres unmarked),-0.04 K
20,C[C@@H](N)CO,-0.11 K
21,CCOC(=O)c1sc2nc(C)nc(N3CCN(c4ccc(O)cc4)CC3)c2c1C,0.06 K
22,Cc1nccn1-c1ncnc2c1cnn2-c1ccccc1,0.09 K
23,COc1ccc(C(=O)C2=C(O)C(=O)N(CCCN3CCOCC3)C2c2ccco2)cc1OC (centres unmarked),-0.03 K
24,Cc1cccc2[nH]c(CCC(=O)NCC(=O)Nc3cccnc3)nc12,-0.01 K
25,CC(OC(=O)c1ccc(-c2ccc(O)cc2)cc1)C(=O)NCc1ccccc1 (centres unmarked),-0.04 K
26,Cc1noc(C(C)N2CCN(Cc3cccc(C(N)=O)c3)CC2)n1 (centres unmarked),-0.03 K

# Grouped by structure: those above containing an NH in an aromatic ring.
row,SMILES,TSA(with NAD+) / Primary screening (TSA) / delta Tm (K)
1,CC(N)c1nnn[nH]1 (centres unmarked),-0.05 K
4,Cc1cc(CC(=O)NC(CC(C)C)C(=O)Nc2cc[nH]n2)no1 (centres unmarked),0.05 K
7,CC1CCc2[nH]c3ccc(C(=O)OCC(=O)NC(=O)NC45CC6CC(CC(C6)C4)C5)cc3c2C1 (centres unmarked),0.31 K
15,O=C(CCn1[nH]c(=O)ccc1=O)Nc1ccc(Cl)cc1F,-0.04 K
17,NC(=O)c1ccc(COC(=O)c2cc3c(ccc4ccccc43)[nH]2)cc1,0.09 K
24,Cc1cccc2[nH]c(CCC(=O)NCC(=O)Nc3cccnc3)nc12,-0.01 K
